Experimental data: PubChem BioAssay AID1671190 (National Center for Advancing Translational Sciences (NCATS), 2021)
Where “and” joins values, the source holds several entries; their conditions need not be identical. Equal values may be shown once. Hit rate of the full screen: of about 580,000 compounds, about 6,100 (1.1%) were called active. The inconclusive results got no clear call from the source; some entries with a clear call stand among them for comparison. Calls come from the whole dose curve; as a rule, active = well fitted inhibition curve with a large enough effect; inconclusive = small, poorly fitted or top-dose-only effect, or another doubt; inactive = no such curve, though single readings can be large or run the other way. A potency beside an inconclusive call is a rough fit, not a confirmed value.

Sequences of proteins named here, by UniProt entry; tags and fusion partners are left off. A change or cut given only in a name is not applied to a line headed by its entry.
UniProt P18054: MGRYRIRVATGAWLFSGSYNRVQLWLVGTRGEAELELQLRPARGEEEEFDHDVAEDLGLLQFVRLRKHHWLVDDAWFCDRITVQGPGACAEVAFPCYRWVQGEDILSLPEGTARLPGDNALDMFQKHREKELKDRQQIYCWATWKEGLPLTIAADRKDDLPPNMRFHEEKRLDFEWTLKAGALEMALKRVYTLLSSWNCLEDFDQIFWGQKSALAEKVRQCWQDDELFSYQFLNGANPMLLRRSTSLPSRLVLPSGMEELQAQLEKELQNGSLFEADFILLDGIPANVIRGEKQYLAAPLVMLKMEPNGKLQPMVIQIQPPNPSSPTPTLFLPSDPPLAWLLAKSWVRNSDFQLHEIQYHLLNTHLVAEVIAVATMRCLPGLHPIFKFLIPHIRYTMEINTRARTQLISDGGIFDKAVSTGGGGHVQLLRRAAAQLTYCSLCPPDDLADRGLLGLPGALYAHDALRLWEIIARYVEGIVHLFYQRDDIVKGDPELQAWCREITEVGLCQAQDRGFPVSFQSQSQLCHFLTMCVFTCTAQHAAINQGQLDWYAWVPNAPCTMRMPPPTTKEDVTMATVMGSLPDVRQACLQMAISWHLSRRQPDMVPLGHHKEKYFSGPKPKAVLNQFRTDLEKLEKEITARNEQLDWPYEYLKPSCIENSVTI

target: Polyunsaturated fatty acid lipoxygenase ALOX12 (Homo sapiens) (UniProt P18054); assay: Primary qHTS assay for inhibitors of human arachidonate 12S-lipoxygenase (ALOX12): Round 2; conditions: purified 12hLO, xylenol orange hydroperoxide absorbance; activity change, negative = inhibition: at 108 µM (top of the series) unless noted
Procedure, shortened: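 Purified human 12hLO at 150 nM in 25 mM Hepes, 0.01% Triton X-100, pH 7.0, preincubated 15 min at room temperature with compound. Reaction started with 40 uM arachidonic acid, 30 min at room temperature. Hydroperoxide measured by Fe-xylenol orange, 573/405 nm absorbance ratio.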
% is set by controls: 0 for no effect and ±100 for the full control effect; potency is the fitted concentration of half-maximal effect.

SMILES | Potency | activity change, negative = inhibition
CC(C)(C)S(=O)(=O)N1C[C@@H]2CC/C=C\C/C=C\2[C@H]1CCO | inconclusive: 14.1 µM [inhibitor, partial curve, poor fit] | 
CCc1ccc(NC(=O)CN2C(=O)CCSc3ccc(S(=O)(=O)N4CCCC4)cc32)cc1 | inconclusive: 112 µM [inhibitor, partial curve, poor fit] | 
COc1ccc(-c2c(C(C)=O)c(C)nc3sc4c(c23)NC(c2ccccc2)NC4=O)cc1 (stereo not given) |  | inactive: -1.29%
CCN(CC)c1ccc(NC(=O)CC2Oc3ccccc3NC2=O)c(C)c1 (stereo not given) |  | inactive: -26.4%
COc1ccc2[nH]cc(C(=O)CN3CCC(C)CC3)c2c1 | inconclusive: 56.2 µM [inhibitor, partial curve, poor fit] | 
CCn1c(SCC(=O)c2ccc3c(c2)OCCO3)nnc1-c1ccco1 | inconclusive: 50.1 µM [inhibitor, partial curve, poor fit] | 
COc1cccc(OC2CN(C(=O)c3[nH]c4c(C)cc(C)cc4c3C)C2)c1 | inconclusive: 2.82 µM [inhibitor, full curve] | 
Nc1nc(COC(=O)C2CC(=O)N(Cc3ccccc3)C2)nc(Nc2ccccc2)n1 (stereo not given) |  | inactive: 11.1%
O=C(C1=C(O)C(=O)N(c2nc3ccc(Cl)cc3s2)C1c1ccco1)c1ccco1 (stereo not given) | inconclusive: 22.4 µM [inhibitor, full curve, poor fit] and active: 7.94 µM | 
O=C(N=C1SC2CS(=O)(=O)CC2N1c1ccccc1)c1cccc([N+](=O)[O-])c1 (stereo not given) | inconclusive: 126 µM [inhibitor, single point] | 
CCOC(=O)CSc1nc2c(c(=O)n(C)c(=O)n2C)n1Cc1ccc(C)cc1 | inconclusive: 39.8 µM [inhibitor, partial curve, poor fit] | 
COCCN1C(=O)c2oc3cc(C)c(C)cc3c(=O)c2C1c1cccc(O)c1 (stereo not given) | inconclusive: 112 µM [inhibitor, partial curve, poor fit] | 
N#Cc1ccc[n+](CC(=O)c2ccc(NC(=O)c3ccccc3)cc2)c1 | inconclusive: 12.6 µM [inhibitor, partial curve, poor fit] | 
COc1ccc(S(=O)(=O)N2CCN(Cc3ccc(OC)c(OC)c3)CC2)cc1 |  | inactive: 12.7%
NS(=O)(=O)c1ccc(CNC(=S)Nc2ccc(Cl)c(Cl)c2)cc1 | inconclusive: 50.1 µM [inhibitor, partial curve, poor fit] | 
Cc1ccc(C(C)NC(=O)CSc2ccc(S(=O)(=O)N3CCOCC3)cn2)cc1C (stereo not given) | inconclusive: 126 µM [inhibitor, partial curve, poor fit] | 
CC(=O)Oc1ccc(C(=O)Nc2cccc(C(=O)c3ccc(C)c(C)c3)c2)cc1 |  | inactive: -7.64%
COc1cccc(Oc2ccc(OC)cc2C(=O)O)c1 | inconclusive: 112 µM [inhibitor, single point] | 
COC(=O)c1ccc(C)c(NC(=O)COc2ccc3c(C)cc(=O)oc3c2)c1 |  | inactive: 5.02%
CCc1[nH]c(=S)c(C#N)c(-c2ccccc2)c1C(=O)OC | inconclusive: 31.6 µM [inhibitor, partial curve, poor fit] | 
CCOCCCn1c(=N)c(C(=O)NC2CCCC2)cc2c(=O)n3cccc(C)c3nc21 | inconclusive: 56.2 µM [inhibitor, partial curve, poor fit] | 
Cc1ccc(C)n1C1C(=O)N(Cc2ccc(C(F)(F)F)cc2)c2ccc(OC(F)(F)F)cc21 (stereo not given) | inconclusive: 35.5 µM [inhibitor, partial curve, poor fit] | 

Whole records as entered above.
`CCOCCCn1c(=N)c(C(=O)NC2CCCC2)cc2c(=O)n3cccc(C)c3nc21` in the list: Potency: inconclusive: 56.2 µM [inhibitor, partial curve, poor fit]
`COC(=O)c1ccc(C)c(NC(=O)COc2ccc3c(C)cc(=O)oc3c2)c1` in the list: activity change, negative = inhibition: inactive: 5.02%

Going on with the list:

SMILES | Potency | activity change, negative = inhibition
Clc1ccc(-c2nnc3ccc(SCc4ccco4)nn23)cc1 |  | inactive: -66.7%
Cc1ccc(C2NC(=O)c3c(sc(C)c3C)N2)c(O)c1 (stereo not given) | active: 39.8 µM | 
CCNc1ccc(S(=O)(=O)NCCN(C)C)cc1[N+](=O)[O-] |  | inactive: 1.2%
COc1ccccc1OCC(=O)Nc1cccc2cccnc12 | inconclusive: 28.2 µM [inhibitor, partial curve, poor fit] | 
CCN(CC)S(=O)(=O)c1ccc2[nH]c(=O)cc(C(=O)NC(C3CC3)C3CC3)c2c1 | inconclusive: 63.1 µM [inhibitor, single point] | 
CN(CC(=O)N1CCc2ccccc2C1)S(=O)(=O)c1ccc2c(c1)c(=O)n(C)c(=O)n2C | inconclusive: 25.1 µM [inhibitor, partial curve, poor fit] | 
CCc1ccc(NC(=O)c2oc3c(c2C)-c2[nH]ncc2CC3)cc1 | inconclusive: 89.1 µM [inhibitor, partial curve, poor fit] | 
COC(=O)c1ccc2nc(-c3ccc(OC)c(OC)c3)c(Cc3ccccc3)n2c1 | inconclusive: 39.8 µM [inhibitor, single point] | 
COc1cccc(NC(=O)c2ccc[n+](C)c2)c1 | inconclusive: 79.4 µM [inhibitor, partial curve, poor fit] | 
CCCn1nc(C)cc1CN(C)C(=O)[C@@H]1CN(C(C)=O)C[C@H]1c1nc(C)no1 |  | inactive: 31.2%
O=C1CSc2ccc(S(=O)(=O)N3CCN(c4ccccc4F)CC3)cc2N1 | inconclusive: 44.7 µM [inhibitor, partial curve, poor fit] | 
O=C(NC(c1ccccc1)c1ccc2ccccc2n1)C1CCN(CCOc2ccc(Cl)cc2Cl)CC1 (stereo not given) | inconclusive: 50.1 µM [inhibitor, partial curve, poor fit] | 
CCOc1ccc(C(=O)/C=C/Nc2ccc(S(=O)(=O)Nc3onc(C)c3C)cc2)cc1 | inconclusive: 63.1 µM [inhibitor, partial curve, poor fit] | 
CCc1ccc(NC(=O)c2ccc3c(c2)c(C)c(C)n3Cc2ccccc2)cc1 |  | inactive: -22.3%
COc1ccc(Cl)cc1C(=O)Nc1ccncc1 |  | inactive: 5.27%
Cc1cn(CC(=O)N2CCOCC(O)C2)c(=O)[nH]c1=O (stereo not given) |  | inactive: 54.9%
COc1ccc(Nc2nc(-c3cccnc3)nc3ccccc23)cn1 | inconclusive: 126 µM [inhibitor, partial curve, poor fit] | 
COc1ccc(C(=S)N2CCOCC2)cc1OC(=O)c1ccccc1 | inconclusive: 112 µM [inhibitor, partial curve, poor fit] | 
Cc1c(Cl)cccc1NC(=O)N1CCCC1c1nncn1-c1ccccc1 (stereo not given) | inconclusive: 3.98 µM [inhibitor, full curve, poor fit] | 
CC(C)(C)OC(=O)N(CCc1ccccc1)Cc1ccc(OCc2cccc(NC(=O)C3CC3)c2)cc1 | inconclusive: 89.1 µM [inhibitor, single point] | 
COc1cc(/C=N/Nc2nc3ccccc3[nH]2)ccc1O | inconclusive: 89.1 µM [inhibitor, partial curve, poor fit] | 
CCCCC(=O)N/N=C/c1sccc1C |  | inactive: -1.78%

SMILES | Potency | activity change, negative = inhibition
CCc1ccc(S(=O)(=O)NCC(O)COc2ccc(OC)cc2)cc1 (stereo not given) | inconclusive: 35.5 µM [inhibitor, partial curve, poor fit] | 
C=CCOC(=O)C(=O)/C=C/c1coc2ccccc2c1=O | inconclusive: 50.1 µM [inhibitor, partial curve, poor fit] | 
CCOC(=O)c1c(NC(=O)CS(=O)(=O)c2ccc(Cl)cc2)sc2c1CCCC2 | inconclusive: 35.5 µM [inhibitor, partial curve, poor fit] | 
CC(Sc1ccc2c(c1)OCCCO2)C(=O)Nc1ccc(Br)cc1 (stereo not given) | inconclusive: 1.58 µM [inhibitor, single point] | 
CCC(NC(=O)c1cccs1)c1ccccc1 (stereo not given) |  | inactive: 6.77%
C=CCOc1ccc(CNC2CC2)cc1 | inconclusive: 79.4 µM [inhibitor, partial curve, poor fit] | 
Cc1cc(SCC(=O)c2c(N)n(Cc3ccccc3)c(=O)n(C)c2=O)nc2ccccc12 | inconclusive: 14.1 µM [inhibitor, full curve] | 
Cc1ccc(C)c(NC(=O)C(Sc2ccccc2)c2ccccc2)c1 (stereo not given) |  | inactive: -3%
CC1(C(=O)O)CCN(C(=O)c2ccc3c(c2)OCO3)CC1 | inconclusive: 8.91 µM [inhibitor, full curve, poor fit] | 
CC(C)C(C(=O)NCc1ccccc1)N(C)Cc1ccc(Cl)c(Cl)c1 (stereo not given) | inconclusive: 112 µM [inhibitor, single point] | 
Oc1nc(Nc2cccc(Cl)c2)sc1/C=C1\C=Nc2ccccc21 |  | inactive: -19.9%
COc1cc(OC)cc(C(=O)N2CCC3(CC2)NC(=O)N(Cc2ccc(F)cc2)C3=O)c1 | inconclusive: 20 µM [inhibitor, full curve] | 
CCOC(=O)c1cnc(-c2ccc(C(F)(F)F)cn2)[nH]c1=O | inconclusive: 1.26 µM [inhibitor, partial curve, poor fit] | 
Cc1cc(OCC(=O)NNC(=S)NC(=O)c2ccc(Br)o2)ccc1Cl | inconclusive: 50.1 µM [inhibitor, partial curve, poor fit] | 
CCc1nc2ccc(C(=O)N(C)Cc3ccccc3)cn2c1N(CC)Cc1cccc(Br)c1 |  | inactive: 4.71%
CCCCC/C=N\Nc1nc(C)nc(N)n1 |  | inactive: -0.515%
COc1ccc(C2C(C(C)=O)=C(O)C(=O)N2CCc2c[nH]c3ccccc23)cc1 (stereo not given) | inconclusive: 56.2 µM [inhibitor, partial curve, poor fit] | 
COc1ccccc1N(C)C(=O)Cn1c(=O)oc2cc(S(=O)(=O)N3CCCC3)ccc21 |  | inactive: -24.8%
CN1C(=O)NC(c2cccc([N+](=O)[O-])c2)C2=C1CC(C)(C)CC2=O (stereo not given) |  | inactive: 99.2%
O=C(O)CCNC(=O)c1ccc(N=Nc2ccc(O)c(C(=O)O)c2)cc1 | active: 34.3 µM | 
N#C/C(=C/c1ccc(N2CCOCC2)o1)C(=O)N1CCOCC1 | inconclusive: 44.7 µM [inhibitor, partial curve, poor fit] | 

Grouped by structure: the compounds so far containing an NH in an aromatic ring.
SMILES | Potency | activity change, negative = inhibition
COc1ccc2[nH]cc(C(=O)CN3CCC(C)CC3)c2c1 | inconclusive: 56.2 µM [inhibitor, partial curve, poor fit] | 
COc1cccc(OC2CN(C(=O)c3[nH]c4c(C)cc(C)cc4c3C)C2)c1 | inconclusive: 2.82 µM [inhibitor, full curve] | 
CCc1[nH]c(=S)c(C#N)c(-c2ccccc2)c1C(=O)OC | inconclusive: 31.6 µM [inhibitor, partial curve, poor fit] | 
CCN(CC)S(=O)(=O)c1ccc2[nH]c(=O)cc(C(=O)NC(C3CC3)C3CC3)c2c1 | inconclusive: 63.1 µM [inhibitor, single point] | 
CCc1ccc(NC(=O)c2oc3c(c2C)-c2[nH]ncc2CC3)cc1 | inconclusive: 89.1 µM [inhibitor, partial curve, poor fit] | 
Cc1cn(CC(=O)N2CCOCC(O)C2)c(=O)[nH]c1=O (stereo not given) |  | inactive: 54.9%
COc1cc(/C=N/Nc2nc3ccccc3[nH]2)ccc1O | inconclusive: 89.1 µM [inhibitor, partial curve, poor fit] | 
CCOC(=O)c1cnc(-c2ccc(C(F)(F)F)cn2)[nH]c1=O | inconclusive: 1.26 µM [inhibitor, partial curve, poor fit] | 
COc1ccc(C2C(C(C)=O)=C(O)C(=O)N2CCc2c[nH]c3ccccc23)cc1 (stereo not given) | inconclusive: 56.2 µM [inhibitor, partial curve, poor fit] | 
